# The whole screen tested about 140,000 compounds, of which about 4,300 (3.1%) were called active. The inconclusive results got no clear call from the source; some entries with a clear call stand among them for comparison.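 Rule for the calls: active = readout at or below -70, meaning at least 70% loss of cells showing the perinucleolar compartment, a nuclear body marking cancer cells; inconclusive = readout between -30 and a set limit; inactive = the rest.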
# Test: High Content Assay for Compounds that inhibit the Assembly of the Perinucleolar Compartment;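 note: plate controls were DMSO wells for no effect and camptothecin positive control wells for full effect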
# Conditions: PC3M PTB-GFP, PNC prevalence imaging, 16 h; at 10 µM; hits give low values
# In short: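 PC3M cells stably expressing PTB-GFP, 750–1000 cells/well, treated 16 h at 37 °C with compound (23 nl of library stock), in duplicate. After paraformaldehyde fixation and Hoechst stain, imaged at 20x; PNC prevalence scored by image analysis.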
row,Structure (SMILES),"activity change (PNC), negative = inhibition"
1,CNc1ccc(Br)cc(C(=O)/C=C/c2ccc(OC)cc2OC)c1=O,inconclusive: -70.4%
2,Cc1cc(Cl)ccc1NC(=S)NCC(C)C,inconclusive: -33.2%
3,Cc1cc(=O)oc2c(CN3CCCCC3)c(O)c(Cl)cc12,inconclusive: -66.4%
4,Cc1sc2nc(SCC(=O)NCc3ccco3)n(-c3ccccc3)c(=O)c2c1C,active: -83.7%
5,CC(C)(C)C(=O)[C@@H]1[C@@H]2C(=O)N(C3CCCCC3)C(=O)[C@@H]2[C@H]2c3ccccc3C=CN12,inconclusive: -49%
6,CCC(c1ccccc1)c1nc(-c2cccnc2)no1 (centres undefined),inconclusive: -49.9%
7,Cc1cccc(NC(=O)CN2CCN(CC(=O)Nc3cccc(C)c3)CC2)c1,inconclusive: -39.4%
8,COc1cccc(C2(O)CCN(C(=O)C3CCC3)CC2)c1,inactive: -29%
9,Cc1nn2c(NCC(C)C)c3c(nc2c1-c1ccccc1)CCC3,inactive: 1.97%
10,COc1ccc(OC)c(NC(=O)CSc2nnc(-c3ccco3)n2-c2ccc(C(=O)O)cc2)c1,inconclusive: -45.3%
11,O=C(Nc1cccnc1)c1ccccc1Oc1ccccc1,inactive: -11.4%
12,COc1ccc(NC(=S)Nc2cc(-c3ccccc3)[nH]n2)cc1Cl,inconclusive: -51.5%
13,CC(=O)C1=C(C)NC(=O)NC1c1cc(Br)ccc1OCC(N)=O (centres undefined),inconclusive: -79.3%
14,COc1ccc(OCc2nnc(SC(C)C(=O)Nc3nccs3)n2-c2ccccc2)cc1 (centres undefined),inconclusive: -47.8%
15,COc1ccc(OCC(=O)N2CCN(C(=O)c3cccc4ccccc34)CC2)cc1,inconclusive: -37.6%
16,CC(C)(C)NC(=O)NC(=O)COC(=O)Cn1c(C(F)(F)F)nc2ccccc21,inconclusive: -31.7%
17,O=C(NCc1ccccn1)C1CCCN(Cc2cnn(-c3ccccc3)c2-n2cccc2)C1 (centres undefined),inactive: -7.8%
18,O=C(NNS(=O)(=O)c1ccc(Cl)cc1)NC1CCCCC1,inactive: -26.3%
19,CCN(CC)CCCN1C(=O)C(=O)/C(=C(/O)c2ccc3c(c2)OCCO3)C1c1ccc(C)o1 (centres undefined),inactive: -19.3%
20,CC(C)NC(=O)/C(C#N)=C/c1ccc2c(c1)OCCO2,inactive: -2.34%
21,CCn1cc(C2=NOC(C(=O)Nc3cccc(C(C)=O)c3)C2)c(C)n1 (centres undefined),inconclusive: -52.8%
22,c1csc(-c2ncc3ccccn23)c1,inconclusive: -51%
23,CC(=O)Nc1ccc(NC(=O)C2CCCN(c3nnc(-n4cccc4)s3)C2)cc1 (centres undefined),inconclusive: -61.6%

row,Structure (SMILES),"activity change (PNC), negative = inhibition"
1,CC(=O)N1CCc2cc(Br)cc(S(=O)(=O)NCCCN3CCC(C)CC3)c21,inconclusive: -36.2%
2,CC(C)(C)SCCNC(=O)/C=C/c1ccc([N+](=O)[O-])cc1,inconclusive: -45.8%
3,O=S(=O)(Nc1cccnc1Cl)c1ccc2c(c1)OCCO2,inconclusive: -51.9%
4,CCN(CC)Cc1c(O)ccc2c(=O)c(-c3ccc4c(c3)OCCO4)coc12,inactive: -14.6%
5,CCOC(=O)c1c(NC(=O)c2ccc(S(=O)(=O)N3CCOCC3)cc2)sc2c1CCN(C)C2,inconclusive: -31%
6,COC(=O)c1ccc(C)c(NC(=O)c2ccc(Cn3cc([N+](=O)[O-])cn3)o2)c1,inconclusive: -49.8%
7,CCOC(=O)C1=NN(C(=O)c2ccco2)C2(CC2)C1,inconclusive: -39.4%
8,Cc1ccc(CSCC(N)C(=O)O)cc1 (centres undefined),inconclusive: -47%
9,CC1CC(=O)Nc2ccccc2N1S(=O)(=O)c1cccc(Cl)c1 (centres undefined),inconclusive: -34.1%
10,COc1ccc(CC(C)N2CCN(c3cccc(C(F)(F)F)c3)CC2)cc1OC (centres undefined),inconclusive: -57.4%
11,CC(C)c1ccc(-c2noc(C3CCCN(S(C)(=O)=O)C3)n2)cc1 (centres undefined),inconclusive: -45%
12,C/C=C/COC(=O)c1[nH]c2c(c1C)C(=O)CC(c1ccco1)C2 (centres undefined),active: -102%
13,O=C(CSc1oc(-c2ccco2)nc1S(=O)(=O)c1ccc(F)cc1)NCC1CCCO1 (centres undefined),active: -119%
14,COc1cccc(-n2c(Cc3cc(=O)[nH]c(=O)[nH]3)nnc2SCC(=O)Nc2ccccc2)c1,inconclusive: -38%
15,CCOC(=O)c1c(C)[nH]c(C(=O)COC(=O)C23CC4CC(CC(Cl)(C4)C2)C3)c1C,inconclusive: -39.5%
16,O=C(NC1CCCCC1)N(Cc1ccccc1)Cc1ccco1,inconclusive: -42.5%
17,CCOC(=S)NC(=O)c1sc2ccccc2c1Cl,active: -109%
18,N#CCCn1nc(-c2ccc([N+](=O)[O-])cc2)cc1Nc1ccccc1NC(=O)C(F)(F)F,inactive: 9.52%
19,CCOC(=O)c1c(NC(=S)Nc2ccc(F)cc2)sc2c1CCC2,inactive: 26.5%
20,Cc1c(C(C)(C)C)c(C=S)n2ccccc12,inactive: 9.17%
21,Cc1ccc(SCCCn2cncn2)cc1,inconclusive: -33%
22,Clc1ccc(OCCSc2nnnn2C2CCCCC2)cc1,inconclusive: -32.4%
23,Cc1cnn(-c2cc(N/N=C/c3ccccc3Cl)ncn2)c1,inactive: -27.1%

# Arranged by SMILES length (descending): some entries from above.
row,Structure (SMILES),"activity change (PNC), negative = inhibition"
4,CCN(CC)Cc1c(O)ccc2c(=O)c(-c3ccc4c(c3)OCCO4)coc12,inactive: -14.6%
23,Cc1cnn(-c2cc(N/N=C/c3ccccc3Cl)ncn2)c1,inactive: -27.1%
22,Clc1ccc(OCCSc2nnnn2C2CCCCC2)cc1,inconclusive: -32.4%

# Additional entries

row,Structure (SMILES),"activity change (PNC), negative = inhibition"
1,CC(C)CNC(=O)c1ccc(COc2ccc(Cl)cc2Cl)o1,inactive: -0.137%
2,COC(=O)c1ccc(NS(=O)(=O)N(C)C)cc1,inactive: 29.2%
3,CC1(C)Cc2cccc(OCC(N)=O)c2O1,inconclusive: -44.9%
4,COc1cc(C(C[N+](=O)[O-])c2c(C)[nH]c3ccccc23)cc(OC)c1OC (centres undefined),inconclusive: -32.6%
5,O=[N+]([O-])c1cccc(S(=O)(=O)Nc2nc3ccccc3nc2Nc2cccc(S(=O)(=O)N3CCCCC3)c2)c1,inconclusive: -36.4%
6,CC(C)CC(NC(=O)C1CCC(C)CC1)C(=O)N1CCN(c2ccccn2)CC1 (centres undefined),inconclusive: -68.7%
7,COCCCn1c(SCC(=O)NC2CCCC2)nnc1-c1ccco1,active: -107%
8,Cc1ccc(-n2nnnc2SCC(=O)c2c(N)n(CC(C)C)c(=O)n(C)c2=O)cc1,inconclusive: -46.2%
9,COc1ccccc1Nc1ncc(C(=O)N2CCC(C(N)=O)CC2)c2ccccc12,inactive: -2.15%
10,O=C(CSc1nc(-c2ccco2)cc(C(F)(F)F)n1)Nc1ccc(C(=O)N2CCCCC2)cc1,inactive: -16.3%
11,CCOc1ccc(S(=O)(=O)Nc2nc3ccccc3nc2N2CCN(C)CC2)cc1,inconclusive: -55%
12,CCN1CCCC1CNC(=O)CN1C(=O)COc2ccc(C)cc21 (centres undefined),inconclusive: -45.7%
13,COc1cc(NS(=O)(=O)c2cccc3nsnc23)cc(OC)c1,active: -82%
14,COc1ccc(CCNC(=O)Cc2ccc(OCc3ccccc3)c(OC)c2[N+](=O)[O-])cc1OCc1ccccc1,active: -101%
15,Cc1cc(C)cc(NC(=O)CSc2nc3c(oc4ccccc43)c(=O)n2-c2ccccc2)c1,inconclusive: -66.5%
16,CC1(C)CC(=O)CC(=Nc2ccc3[nH]c(=O)[nH]c3c2)C1,inconclusive: -53.7%
17,COC(=O)C1=C(COc2ccc(C=O)cc2OC)NC(=O)NC1c1cc(C)ccc1C (centres undefined),inactive: 2.25%
18,CCOc1nc(Nc2ccc(OC)c(Cl)c2)nc(OCC)n1,inactive: -19%
19,Cc1ccc(NC(=O)CSCCc2ccccn2)nc1,inactive: 14.8%
20,CCN(CC)c1ccc(C=N/C(C#N)=C(\N)C#N)cc1,inactive: -3.62%
21,CCCN(CCC)S(=O)(=O)c1ccc(C(=O)Nc2nnc(-c3cc(OC)cc(OC)c3)o2)cc1,inconclusive: -41.4%
22,COC(=O)c1c(-c2cccc(C)c2)csc1N,inactive: 12%
23,COc1ccc(/C=C(/CC(=O)Nc2ccccc2)c2nc3ccccc3s2)cc1,inconclusive: -35.6%

row,Structure (SMILES),"activity change (PNC), negative = inhibition"
1,N#C/C(=C\c1cccn1-c1ccccc1)C(=O)NC1CCCCC1,inactive: 11%
2,CCOC(=O)C(Sc1ncc(C#N)c(N)n1)C(C)C (centres undefined),inconclusive: -41.9%
3,CCc1ccc2[nH]c(=O)c(CN(Cc3ccccc3OC)Cc3nnnn3Cc3ccco3)cc2c1,inactive: 5.94%
4,O=C(Nc1ccccc1C(=O)NCc1cccnc1)c1ccc(Cl)cc1Cl,inconclusive: -40.2%
5,Cc1occc1C(=O)NC(C)c1ccc2c(c1)OCO2 (centres undefined),inconclusive: -39.9%
6,O=C(NCC1CCCO1)c1cc(-c2ccncc2)nc2ccc(S(=O)(=O)N3CCOCC3)cc12 (centres undefined),inconclusive: -68.2%
7,Clc1ccc(COn2c(-c3ccccc3)nc3ccccc32)cc1,inactive: 14.7%
8,COc1ccc(CC(=O)Nc2ccc(-c3nnc(-c4ccccc4)o3)cc2)cc1OC,inactive: -1.7%
9,CCOCCc1nnc(NC(=O)c2cccc(F)c2)s1,inconclusive: -60.2%
10,COc1ccc2c(OC)cc(-c3ccccc3)nc2c1,inactive: 7.7%
11,O=C(N/N=C/C=C/c1ccco1)/C(=C/c1ccccc1)NC(=O)c1ccccc1,inactive: 51.9%
12,Cc1ccc(C(=O)/C=C\NCc2ccccc2)cc1,inconclusive: -61.8%
13,S=c1[nH]nc(-c2cccnc2)n1/N=C/C=C/c1ccccc1,inconclusive: -44.2%
14,c1ccc(-c2nc3c(ccc4ccccc43)[nH]2)nc1,inactive: -27.9%
15,O=C(NCc1cccs1)C1CCCN(S(=O)(=O)c2cccc3cccnc23)C1 (centres undefined),inactive: -17.5%
16,OC(CCCN1CCCCC1)(c1ccccc1)c1ccccc1,inactive: 42.1%
17,CCCC(=O)c1ccc(N2CCN(C(=O)c3ccccc3Br)CC2)c(F)c1,inactive: 27.9%
18,CCOC(=O)C1=C(Cn2cnc3ccccc32)NC(=O)NC1c1ccc(Cl)cc1 (centres undefined),inconclusive: -47.5%
19,CC1CCN(C(=O)c2ccc3c(c2NCCO)C(=O)c2ccccc2C3=O)CC1,inconclusive: -50.2%
20,COc1cc(S(=O)(=O)N2CCOCC2)ccc1NC(=O)COC(=O)C12CC3CC(CC(C3)C1)C2,inconclusive: -32.7%
